{"source": "PubChem BioAssay AID1259405 (NCATS, 2018)", "screen": "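Mouse-designed siRNAs used to find CHO productivity engineering targets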 (primary screen)", "cell system": "Chinese hamster CHO-K1 ovary cells with stable secreted eGFP expression", "knock-down reagent": "single siRNA against mouse genes, 0.8 pmol siRNA per well (2 µl of 400 nM stock)", "timing": "3 days", "detection": "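Percent of the per-plate non-targeting control median for intracellular GFP per well by laser scanning cytometry and for cell viability by ATP luminescence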", "scale": "GFP, % of control: higher = more GFP per well, higher productivity; viability (ATP), % of control: higher = more viable cells (more ATP)", "rule for the call": "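Called active when intracellular GFP, relative to negative control, is at or above 120%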", "note": "Here is an unselected part of about 50,000 reagents. About 4,000 of them (8%) were called active. 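Mouse siRNA library applied to hamster cells; one well for each siRNA.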 Reagents against one gene are numbered here."}
{"gene knocked down": "Rab31 (RAB31, member RAS oncogene family)", "reagent": 1, "GFP, % of control": 83, "viability (ATP), % of control": 111, "call": "inactive"}
{"gene knocked down": "Rab31 (RAB31, member RAS oncogene family)", "reagent": 2, "GFP, % of control": 93.9, "viability (ATP), % of control": 103, "call": "inactive"}
{"gene knocked down": "Rab31 (RAB31, member RAS oncogene family)", "reagent": 3, "GFP, % of control": 87.9, "viability (ATP), % of control": 101, "call": "inactive"}
{"gene knocked down": "Elf2 (E74-like factor 2)", "reagent": 1, "GFP, % of control": 95.5, "viability (ATP), % of control": 59.2, "call": "inactive"}
{"gene knocked down": "Elf2 (E74-like factor 2)", "reagent": 2, "GFP, % of control": 80, "viability (ATP), % of control": 69.8, "call": "inactive"}
{"gene knocked down": "Elf2 (E74-like factor 2)", "reagent": 3, "GFP, % of control": 138, "viability (ATP), % of control": 108, "call": "active"}
{"gene knocked down": "Hyal2 (hyaluronoglucosaminidase 2)", "reagent": 1, "GFP, % of control": 115, "viability (ATP), % of control": 88.2, "call": "inactive"}
{"gene knocked down": "Hyal2 (hyaluronoglucosaminidase 2)", "reagent": 2, "GFP, % of control": 116, "viability (ATP), % of control": 74.8, "call": "inactive"}
{"gene knocked down": "Hyal2 (hyaluronoglucosaminidase 2)", "reagent": 3, "GFP, % of control": 92.6, "viability (ATP), % of control": 124, "call": "inactive"}
{"gene knocked down": "Ear1 (eosinophil-associated, ribonuclease A family, member 1)", "reagent": 1, "GFP, % of control": 102, "viability (ATP), % of control": 96.5, "call": "inactive"}
{"gene knocked down": "Ear1 (eosinophil-associated, ribonuclease A family, member 1)", "reagent": 2, "GFP, % of control": 58.1, "viability (ATP), % of control": 56.8, "call": "inactive"}
{"gene knocked down": "Ear1 (eosinophil-associated, ribonuclease A family, member 1)", "reagent": 3, "GFP, % of control": 46.6, "viability (ATP), % of control": 58.5, "call": "inactive"}
{"gene knocked down": "Syk (spleen tyrosine kinase)", "reagent": 1, "GFP, % of control": 70.4, "viability (ATP), % of control": 60.8, "call": "inactive"}
{"gene knocked down": "Syk (spleen tyrosine kinase)", "reagent": 2, "GFP, % of control": 85.5, "viability (ATP), % of control": 65.7, "call": "inactive"}
{"gene knocked down": "Syk (spleen tyrosine kinase)", "reagent": 3, "GFP, % of control": 82.5, "viability (ATP), % of control": 65.9, "call": "inactive"}
{"gene knocked down": "Hspa12a (heat shock protein family A (Hsp70) member 12A)", "reagent": 1, "GFP, % of control": 48, "viability (ATP), % of control": 50.4, "call": "inactive"}
{"gene knocked down": "Hspa12a (heat shock protein family A (Hsp70) member 12A)", "reagent": 2, "GFP, % of control": 79, "viability (ATP), % of control": 76.4, "call": "inactive"}
{"gene knocked down": "Hspa12a (heat shock protein family A (Hsp70) member 12A)", "reagent": 3, "GFP, % of control": 81.8, "viability (ATP), % of control": 88.5, "call": "inactive"}
{"gene knocked down": "Rps6ka5 (ribosomal protein S6 kinase A5)", "reagent": 1, "GFP, % of control": 135, "viability (ATP), % of control": 93.4, "call": "active"}
{"gene knocked down": "Rps6ka5 (ribosomal protein S6 kinase A5)", "reagent": 2, "GFP, % of control": 118, "viability (ATP), % of control": 110, "call": "inactive"}
{"gene knocked down": "Rps6ka5 (ribosomal protein S6 kinase A5)", "reagent": 3, "GFP, % of control": 113, "viability (ATP), % of control": 84.6, "call": "inactive"}
{"gene knocked down": "Vmn1r4 (vomeronasal 1 receptor 4)", "reagent": 1, "GFP, % of control": 37.9, "viability (ATP), % of control": 32.4, "call": "inactive"}
{"gene knocked down": "Vmn1r4 (vomeronasal 1 receptor 4)", "reagent": 2, "GFP, % of control": 64.6, "viability (ATP), % of control": 74.6, "call": "inactive"}
{"gene knocked down": "Vmn1r4 (vomeronasal 1 receptor 4)", "reagent": 3, "GFP, % of control": 89.7, "viability (ATP), % of control": 110, "call": "inactive"}

Reagents listed so far marked active:
{"gene knocked down": "Elf2 (E74-like factor 2)", "reagent": 3, "GFP, % of control": 138, "viability (ATP), % of control": 108, "call": "active"}
{"gene knocked down": "Rps6ka5 (ribosomal protein S6 kinase A5)", "reagent": 1, "GFP, % of control": 135, "viability (ATP), % of control": 93.4, "call": "active"}

Further results follow:
{"gene knocked down": "Hmx2 (H6 homeobox 2)", "reagent": 1, "GFP, % of control": 67.1, "viability (ATP), % of control": 68.5, "call": "inactive"}
{"gene knocked down": "Hmx2 (H6 homeobox 2)", "reagent": 2, "GFP, % of control": 75.9, "viability (ATP), % of control": 84.3, "call": "inactive"}
{"gene knocked down": "Hmx2 (H6 homeobox 2)", "reagent": 3, "GFP, % of control": 40.9, "viability (ATP), % of control": 49.5, "call": "inactive"}
{"gene knocked down": "Xpr1 (xenotropic and polytropic retrovirus receptor 1)", "reagent": 1, "GFP, % of control": 68.8, "viability (ATP), % of control": 105, "call": "inactive"}
{"gene knocked down": "Xpr1 (xenotropic and polytropic retrovirus receptor 1)", "reagent": 2, "GFP, % of control": 59.7, "viability (ATP), % of control": 88.7, "call": "inactive"}
{"gene knocked down": "Xpr1 (xenotropic and polytropic retrovirus receptor 1)", "reagent": 3, "GFP, % of control": 91.7, "viability (ATP), % of control": 69.5, "call": "inactive"}
{"gene knocked down": "Klhl6 (kelch-like 6)", "reagent": 1, "GFP, % of control": 55.8, "viability (ATP), % of control": 78.1, "call": "inactive"}
{"gene knocked down": "Klhl6 (kelch-like 6)", "reagent": 2, "GFP, % of control": 83.1, "viability (ATP), % of control": 89.4, "call": "inactive"}
{"gene knocked down": "Klhl6 (kelch-like 6)", "reagent": 3, "GFP, % of control": 55.9, "viability (ATP), % of control": 91.5, "call": "inactive"}
{"gene knocked down": "Dlg2 (discs large MAGUK scaffold protein 2)", "reagent": 1, "GFP, % of control": 99.3, "viability (ATP), % of control": 91.1, "call": "inactive"}
{"gene knocked down": "Dlg2 (discs large MAGUK scaffold protein 2)", "reagent": 2, "GFP, % of control": 99.6, "viability (ATP), % of control": 72.6, "call": "inactive"}
{"gene knocked down": "Patl1 (protein associated with topoisomerase II homolog 1 (yeast))", "reagent": 1, "GFP, % of control": 42.6, "viability (ATP), % of control": 26.5, "call": "inactive"}
{"gene knocked down": "Patl1 (protein associated with topoisomerase II homolog 1 (yeast))", "reagent": 2, "GFP, % of control": 163, "viability (ATP), % of control": 141, "call": "active"}
{"gene knocked down": "Patl1 (protein associated with topoisomerase II homolog 1 (yeast))", "reagent": 3, "GFP, % of control": 84.2, "viability (ATP), % of control": 28.8, "call": "inactive"}
{"gene knocked down": "Patl1 (protein associated with topoisomerase II homolog 1 (yeast))", "reagent": 4, "GFP, % of control": 81.9, "viability (ATP), % of control": 82.8, "call": "inactive"}
{"gene knocked down": "Patl1 (protein associated with topoisomerase II homolog 1 (yeast))", "reagent": 5, "GFP, % of control": 81.5, "viability (ATP), % of control": 82.8, "call": "inactive"}
{"gene knocked down": "Patl1 (protein associated with topoisomerase II homolog 1 (yeast))", "reagent": 6, "GFP, % of control": 163, "viability (ATP), % of control": 141, "call": "active"}
